Taken from: PubChem BioAssay AID1259308 (NCATS, 2017)
Here is a random part of about 59,000 reagents. About 1,510 of all reagents (2.6%) count as active. 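Calls use total luciferase alone and ignore viability, so some active siRNAs may act by altering cell number.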 The numbers tell different reagents against one gene apart. Further read-outs or replicates are left out here. Reagent sequences are not shown.

- Screen: 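Knock-downs that increase output of a recombinant reporter protein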 (primary screen)
- System: human HEK293 embryonic kidney cells stably expressing firefly luciferase (HEK-CMV-Luc2-Hygro)
- Knock-down reagent: single siRNA against human genes, 0.8 pmol siRNA per well
- Timing: 72 h
- Measurement: 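Luciferase light (ONE-Glo) measured on one replicate plate set and viability (CellTiter-Glo) on the other, scaled to a negative control siRNA, with robust z-scores and luciferase per cell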
- Scale: total luciferase, z-score: higher = more reporter protein produced
- Rule for the call: 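Active when the median/MAD z-score for overall luciferase is greater than 3; a gene was taken forward for validation with new siRNAs if at least two of its three siRNAs passed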
- Calls: active = raised luciferase; inactive = no rise

Knock-down of CMTM6 (CKLF like MARVEL transmembrane domain containing 6) #1 resulted in: total luciferase, z-score 0.612; inactive.
CMTM6 (CKLF like MARVEL transmembrane domain containing 6) #2 gave total luciferase, z-score -1.78; inactive.
With knock-down of CMTM6 (CKLF like MARVEL transmembrane domain containing 6) #3 the results were total luciferase, z-score 0.837; inactive.
After knock-down of MT1IP (metallothionein 1I, pseudogene) #1 the results were total luciferase, z-score 0.368; inactive.
After knock-down of MT1IP (metallothionein 1I, pseudogene) #2, the screen gave total luciferase, z-score 0.487; inactive.
Against MT1IP (metallothionein 1I, pseudogene) #3, the entry reads total luciferase, z-score 1.24; inactive.
With knock-down of BIRC3 (baculoviral IAP repeat containing 3) #1, the screen gave total luciferase, z-score 0.228; inactive.
For BIRC3 (baculoviral IAP repeat containing 3) #2 the deposit lists total luciferase, z-score 0.229; inactive.
Silencing of BIRC3 (baculoviral IAP repeat containing 3) #3 resulted in: total luciferase, z-score 0.456; inactive.
FTL (ferritin light chain) #1 gave total luciferase, z-score 2.67; inactive.
FTL (ferritin light chain) #2 gave total luciferase, z-score -0.0665; inactive.
FTL (ferritin light chain) #3 gave total luciferase, z-score -2.12; inactive.
MOCOS (molybdenum cofactor sulfurase) #1 gave total luciferase, z-score -0.874; inactive.
With knock-down of MOCOS (molybdenum cofactor sulfurase) #2, the record shows total luciferase, z-score -0.506; inactive.
Depletion of MOCOS (molybdenum cofactor sulfurase) #3 came out at: total luciferase, z-score -1.29; inactive.
MSANTD3 (Myb/SANT DNA binding domain containing 3) #1 scored total luciferase, z-score 0.682; inactive.
MSANTD3 (Myb/SANT DNA binding domain containing 3) #2 showed total luciferase, z-score 1.01; inactive.
MSANTD3 (Myb/SANT DNA binding domain containing 3) #3 scored total luciferase, z-score 0.406; inactive.
Against MMGT1 (membrane magnesium transporter 1) #1 the deposit lists total luciferase, z-score -0.61; inactive.
After knock-down of MMGT1 (membrane magnesium transporter 1) #2 the results were total luciferase, z-score 0.0168; inactive.
For MMGT1 (membrane magnesium transporter 1) #3, the values are total luciferase, z-score -0.975; inactive.
Against ARHGAP27 (Rho GTPase activating protein 27) #1 the deposit lists total luciferase, z-score -0.726; inactive.
ARHGAP27 (Rho GTPase activating protein 27) #2 gave total luciferase, z-score -0.44; inactive.
Knock-down of ARHGAP27 (Rho GTPase activating protein 27) #3 came out at: total luciferase, z-score 0.945; inactive.
With knock-down of ARHGAP27 (Rho GTPase activating protein 27) #4 the results were total luciferase, z-score -0.962; inactive.
ARHGAP27 (Rho GTPase activating protein 27) #5 showed total luciferase, z-score -0.411; inactive.
Knock-down of ARHGAP27 (Rho GTPase activating protein 27) #6 came out at: total luciferase, z-score -2.38; inactive.
SNCA (synuclein alpha) #1 showed total luciferase, z-score -0.659; inactive.
SNCA (synuclein alpha) #2 gave total luciferase, z-score -0.522; inactive.
Knock-down of SNCA (synuclein alpha) #3 came out at: total luciferase, z-score 0.562; inactive.
Depletion of AKAP11 (A-kinase anchoring protein 11) #1 resulted in: total luciferase, z-score 0.0118; inactive.
For AKAP11 (A-kinase anchoring protein 11) #2, the values are total luciferase, z-score 0.368; inactive.
Depletion of AKAP11 (A-kinase anchoring protein 11) #3 gave: total luciferase, z-score 1.89; inactive.

5 of these entries, reformatted.
| target | reagent | total luciferase, z-score | activity call |
| --- | --- | --- | --- |
| MMGT1 (membrane magnesium transporter 1) | 2 | 0.0168 | inactive |
| MMGT1 (membrane magnesium transporter 1) | 3 | -0.975 | inactive |
| ARHGAP27 (Rho GTPase activating protein 27) | 1 | -0.726 | inactive |
| ARHGAP27 (Rho GTPase activating protein 27) | 2 | -0.44 | inactive |
| ARHGAP27 (Rho GTPase activating protein 27) | 3 | 0.945 | inactive |
